In PubChem BioAssay AID1347076 (National Center for Advancing Translational Sciences (NCATS), 2019):
About 13,000 (3.2%) of roughly 400,000 compounds were called active. The inconclusive results got no clear call from the source; some entries with a clear call stand among them for comparison. Calls come from the whole dose curve; as a rule, active = well fitted cell-killing curve with a large enough effect; inconclusive = small, poorly fitted or top-dose-only effect, or effect the other way; inactive = flat fitted curve, though single readings scatter. Potencies of inconclusive entries are doubtful fits and often do not repeat.
% is set by controls: 0 for no effect and ±100 for the full control effect; potency is the fitted concentration of half-maximal effect.

Experiment: qHTS assay for MDR1-selective chemotherapeutics: Primary screen using the drug-selected MDR subline cells KB-V1; note: nearly all actives have a fitted effect of over 60% in size
Conditions: KB-V1 MDR cells viability, CellTiter-Glo, 72 h; activity change, negative = cytotoxicity: at 46.1 µM (top of the series)
How it was run: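 Cytotoxicity toward P-gp-expressing KB-V1 cells was determined as loss of CellTiter-Glo luminescence after 72 h at 37 degrees C. Compounds were tested in quantitative HTS format across a concentration range, with curves fitted to normalized data.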
For `Cc1cc(NC(=O)c2ccc(NC(=O)C3CCCO3)cc2)ccc1Br` (stereo not drawn), the Potency was inconclusive: 13 µM [cytotoxic, partial curve, poor fit]. With `O=C(COC(=O)Cc1ccc(Br)cc1)NC1CCCCC1` the Potency was inconclusive: 23.1 µM [rising, single point]. In the case of `Cc1ccc(S(=O)(=O)N2CCOCC2)cc1NC(=O)Cn1cc(C(F)(F)F)cc(Cl)c1=O`, the activity change, negative = cytotoxicity is reported as inconclusive: -29.5%. For `O=C(CSc1ncnc2c1nnn2-c1ccc(F)cc1)NCC1CCCO1` (stereo not drawn), the “activity change, negative = cytotoxicity” value was inactive: -4.45%. In the case of `CCOc1ccc(N(CC)S(=O)(=O)N2CCCC(C(=O)Nc3cc(Cl)ccc3OC)C2)cc1` (stereo not drawn), the “activity change, negative = cytotoxicity” value is reported as inactive: -10.7%. With `Cc1cc(C)c2sc(NC(=O)C3=COCCO3)nc2c1` the “activity change, negative = cytotoxicity” value was inactive: 23.1%. For `O=C(CCC(=O)Nc1ccccc1Cl)NNC(=O)C1CCCCC1`, the activity change, negative = cytotoxicity was inconclusive: 30.4%. With `CCOc1ccc(CNCc2cccnc2)cc1` the Potency was inconclusive: 29.1 µM [cytotoxic, single point]. For `CC(C)N(Cc1ccccc1)S(=O)(=O)c1ccc(F)cc1`, the “activity change, negative = cytotoxicity” value was inactive: 0%. In the case of `COc1ccc(OC)c(/C=N/Nc2nncn2/N=C/c2cc(OC)ccc2OC)c1`, the Potency is reported as inconclusive: 29.1 µM [cytotoxic, single point]. For `Cc1ccsc1C(=O)OCC(=O)c1cc2ccccc2o1`, the Potency was inconclusive: 32.6 µM [cytotoxic, partial curve, poor fit]. For `CN(C)c1ccc(CNC(=O)C2Cc3c(-c4ccccc4Oc4ccccc4)ccnc3O2)cc1` (stereo not drawn), the Potency was inconclusive: 29.1 µM [cytotoxic, single point]. For `COc1ccc(CC(=O)NCc2n[nH]c(=S)n2-c2cccc(C)c2)cc1`, the Potency was inconclusive: 16.4 µM [rising, single point]. With `COc1ccccc1NC(=O)CSc1ccc(-c2cccs2)nn1` the Potency was inconclusive: 13 µM [cytotoxic, partial curve]. For `Cc1ccc(Nc2c(-c3ccco3)nc3ccccn23)cc1`, the Potency was inconclusive: 14.6 µM [cytotoxic, partial curve]. For `COc1ccc(Nc2ncc(C(=O)N3CCN(c4ccc(F)cc4)CC3)c3ccccc23)cc1`, the Potency was inconclusive: 18.4 µM [cytotoxic, single point]. With `O=C(COc1ccc2c3c(c(=O)oc2c1)CCC3)N1CCN(c2ccc(F)cc2)CC1` the Potency was inconclusive: 29.1 µM [cytotoxic, single point]. For `COc1ccccc1NS(=O)(=O)c1cc(NC(=O)Cc2n[nH]c(=O)c3ccccc23)ccc1Cl`, the “activity change, negative = cytotoxicity” value was inactive: -4.16%. With `O=C1c2ccccc2NC(c2cn[nH]c2-c2ccc(Cl)cc2)N1O` (stereo not drawn) the Potency was inconclusive: 5.17 µM [cytotoxic, full curve]. In the case of `O=C(COc1ccc(C(=O)c2ccccc2)cc1)NCC(=O)Nc1ccccc1Br`, the “activity change, negative = cytotoxicity” value is reported as inactive: -1.72%. With `CCOc1ccc(C(CN2CCOCC2)C(C)=O)cc1OC` (stereo not drawn) the Potency was inconclusive: 29.1 µM [cytotoxic, single point]. In the case of `O=C(Cc1csc(Nc2nc(=S)[nH]c3ccccc23)n1)NCc1cccc(Cl)c1`, the Potency is reported as inconclusive: 29.1 µM [cytotoxic, single point]. In the case of `COc1cc(C(c2nnnn2C2CCCC2)N2CCc3ccccc3C2)ccc1O` (stereo not drawn), the Potency is reported as inconclusive: 3.26 µM [rising, full curve]. For `CSCCCNC(=S)N(C)CC(=O)Nc1ccc(C)cc1`, the Potency was inconclusive: 29.1 µM [rising, single point]. In the case of `Cc1ccccc1CN1C(=O)c2ccccc2C1c1nnnn1Cc1ccccc1` (stereo not drawn), the Potency is reported as inconclusive: 18.4 µM [cytotoxic, single point]. With `O=C(NC1CC1)C1CC(=O)N(c2cccc(Cl)c2)C1` (stereo not drawn) the Potency was inconclusive: 20.6 µM [rising, single point]. In the case of `Cc1cc(OC(=O)c2ccccc2C)c([N+](=O)[O-])c(=O)[nH]1`, the “activity change, negative = cytotoxicity” value is reported as inactive: 6.21%. With `C/C(=N\NC(=O)C1(C)CC1(Br)Br)c1cccc(NC(=O)C(C)(C)C)c1` (stereo not drawn) the Potency was inconclusive: 20.6 µM [cytotoxic, partial curve]. With `O=C(NCCCc1ccccc1)N1CCOCC1` the Potency was inconclusive: 8.2 µM [rising, partial curve, poor fit]. With `CCCn1c(N2CCN(C(=O)N3CCCCC3)CC2)nc2ccccc21` the Potency was inconclusive: 9.2 µM [cytotoxic, partial curve, poor fit]. With `CCCCN1C(C(=O)c2ccccc2)=C(OC(C)=O)c2ccccc2S1(=O)=O` the Potency was inconclusive: 7.31 µM [cytotoxic, partial curve]. In the case of `CN(C)c1ccc(CNC(=O)CCS(=O)(=O)c2ccc3c(c2)oc(=O)n3C)cc1`, the activity change, negative = cytotoxicity is reported as inconclusive: 18.7%. For `CCc1nc2ccccc2c(NC(=O)CN2CC(C)CC(C)C2)c1C` (stereo not drawn), the “activity change, negative = cytotoxicity” value was inactive: -14.9%. With `Cc1ccc(-c2nc(Nc3cccc(C)c3)sc2CC(=O)O)cc1` the “activity change, negative = cytotoxicity” value was inactive: -24.8%. With `CCCCN(CCCC)C1=C(C(=O)c2ccccc2)N(C)S(=O)(=O)c2ccccc21` the Potency was inconclusive: 20.6 µM [cytotoxic, partial curve, poor fit]. With `CCOc1ccc(CCN2C(=S)N([C@@H](CC(C)C)CN3CCC[C@@H]3CN3C(=S)NC[C@@H]3Cc3ccc(O)cc3)C[C@@H]2Cc2ccc(O)cc2)cc1` the “activity change, negative = cytotoxicity” value was inactive: -23.8%. With `CC(=O)Nc1ccc(N(C(=O)c2ccco2)C(C(=O)NC2CCCC2)c2cccs2)cc1` (stereo not drawn) the “activity change, negative = cytotoxicity” value was inactive: 3.83%. With `Cc1c(C(=O)NCc2ccco2)sc2nc(-c3ccccc3)cn12` the “activity change, negative = cytotoxicity” value was inactive: 11.8%. For `CSc1ccccc1C(=O)N1CCC(CCC(=O)NCc2ccc(F)cc2)CC1`, the Potency was inconclusive: 18.4 µM [cytotoxic, single point]. In the case of `O=C(NCc1ccco1)C1CCCCN1S(=O)(=O)c1ccc(F)cc1` (stereo not drawn), the Potency is reported as inconclusive: 11.6 µM [cytotoxic, partial curve]. For `C=C(C)CSc1nnc2[nH]c(=O)cc(N)n12`, the Potency was active: 18.4 µM. In the case of `Cc1cc(S(=O)(=O)NCC(C)C)ccc1OCC(=O)NCc1ccccn1`, the Potency is reported as inconclusive: 23.1 µM [cytotoxic, single point]. For `COc1ccc(C(=O)NC(=S)NCc2ccco2)cc1Br`, the Potency was inconclusive: 29.1 µM [cytotoxic, single point]. For `Cc1cc(NS(=O)(=O)c2ccccc2)cc(Cl)c1O`, the Potency was active: 16.4 µM. With `Cn1c(SCc2ccc(F)cc2)nnc1-c1ccccn1` the Potency was inconclusive: 25.9 µM [cytotoxic, single point]. In the case of `COc1cccc(-c2nn3c(-c4cc(C)[nH]n4)nnc3s2)c1`, the Potency is reported as inconclusive: 29.1 µM [cytotoxic, single point]. In the case of `CCc1c(C)nc2ncnn2c1Nc1ccc(C#N)c(Cl)c1`, the Potency is reported as inconclusive: 29.1 µM [cytotoxic, single point]. With `O=C(CN1C(=O)NC2(CCc3ccccc32)C1=O)Nc1ccc(Br)cc1F` (stereo not drawn) the “activity change, negative = cytotoxicity” value was inactive: -20.4%. For `CCOc1ccc2nc(N3CCCC(C(=O)NC4CCCC4)C3)sc2c1` (stereo not drawn), the Potency was inconclusive: 3.66 µM [cytotoxic, full curve, poor fit]. With `Oc1ccc(Br)cc1-c1cc(-c2ccco2)[nH]n1` the Potency was inconclusive: 16.4 µM [cytotoxic, single point]. With `O=C(CCS(=O)(=O)c1ccccc1)Nc1ncc([N+](=O)[O-])s1` the Potency was inconclusive: 18.4 µM [cytotoxic, single point]. With `CC(=O)Oc1ccc(-c2cccc(C(=O)OCC(=O)N(C)c3ccccc3)c2)cc1` the Potency was inconclusive: 23.1 µM [cytotoxic, partial curve, poor fit]. In the case of `Cn1nc(C(=O)N2CCN(c3ccccn3)CC2)c2ccccc2c1=O`, the Potency is reported as inconclusive: 16.4 µM [cytotoxic, partial curve, poor fit]. In the case of `COc1ccccc1NC(=O)C1CCCN1S(=O)(=O)c1ccc(Cl)cc1` (stereo not drawn), the Potency is reported as inconclusive: 5.8 µM [cytotoxic, partial curve]. With `CCOC(=O)c1cnc(-c2ccccc2)nc1N1CC(C)OC(C)C1` (stereo not drawn) the Potency was inconclusive: 29.1 µM [cytotoxic, partial curve, poor fit]. With `CCCOc1ccc(F)cc1-c1cc(C(=O)NCc2cccs2)[nH]n1` the Potency was inconclusive: 0.0052 µM [rising, full curve]. With `Cc1c(C(=O)NC(C)C)oc2c1-c1[nH]ncc1CC2` the “activity change, negative = cytotoxicity” value was inactive: 12.4%. With `CC(C)(C)NC(=O)C(C1CC1)n1c(=O)c(-c2cc3ccccc3[nH]2)nc2ccccc21` (stereo not drawn) the Potency was inconclusive: 20.6 µM [cytotoxic, single point]. For `CCCCCOC(=O)C1=C(C)Nc2nnnn2C1c1ccccc1Cl` (stereo not drawn), the Potency was active: 20.6 µM. With `Cc1cc(C)c(-c2c(O)c3c(n(C)c2=O)CC(C)(C)CC3=O)c(C)c1` the Potency was inconclusive: 23.1 µM [cytotoxic, partial curve, poor fit]. With `CCCSc1nnc(NC(=O)c2nc(SC)ncc2Cl)s1` the Potency was inconclusive: 29.1 µM [cytotoxic, single point]. In the case of `CCCC(=O)Nc1ccccc1-c1nnn(CC(=O)Nc2ccc(OC)cc2)n1`, the Potency is reported as inconclusive: 20.6 µM [cytotoxic, single point]. With `Cc1ccc(SCCC(=O)Nc2ccc(OCc3ccccc3)cc2)cc1` the Potency was inconclusive: 7.31 µM [cytotoxic, partial curve, poor fit]. With `Cc1cc(C)cc(C(=O)NCC(=O)N2CCN(c3cccc(Cl)c3)CC2)c1` the Potency was inconclusive: 16.4 µM [cytotoxic, single point]. With `COc1cccc(-c2noc(CCC(=O)NC3CCCCC3)n2)c1` the Potency was inconclusive: 3.66 µM [cytotoxic, partial curve]. In the case of `CC(=O)Nc1ccc(NC(=O)COC(=O)c2c3c(nc4ccccc24)CCN(Cc2ccccc2)C3)cc1`, the “activity change, negative = cytotoxicity” value is reported as inactive: 13.3%. For `CCCCc1nc2n[nH]c(N)c2c2c1CCCC2`, the Potency was active: 0.517 µM. For `C[C@H]1CN([C@@H](C)CO)S(=O)(=O)c2ccc(Br)cc2O[C@@H]1CN(C)C(=O)Cc1ccccc1`, the Potency was inconclusive: 20.6 µM [cytotoxic, single point].
